These results are taken from US20240390581A1, “METHOD AND APPARATUS FOR A STEADY STATE INT[…] OF SEROTONERGIC DRUGS” (PSOULMED, LLC, priority 2021, published 2024).

The subject of the series is vein. The experiment in a line: Additives to the intravenous DMT infusion, flow rate and venous injury. The class given is in vivo. An excerpt:
In this respect, the inventors addressed the following goals: • 1. […] A method for combining goals 1 and/or 2 with nitroglycerine ointment on the vein to be cannulated prior to gaining intravenous access, which improves vein patency and dilution from blood flow as well as normal saline. • 4. A method for creating an injectable form of a DMT salt such as fumarate, or freebase DMT in a solution or suspension or emulsion in an iso-osmolar or near iso-osmolar carrier such as hyaluronic acid or polyethylene glycol, as to minimize molecular interaction with the walls and endothelium of the peripheral vasculature, while maintaining water soluble or miscible properties as to not adversely affect the pharmacokinetics. • 5. A method for utilizing goal 4, with any other drug or substance that may cause venous irritation, to minimize the risk of thrombophlebitis, such as nanoparticles or crystals in suspension, or similarly, chemotherapeutic drugs, anesthetic agents and the like.

On to `[Mg+2]` [magnesium], for which, where the note is “magnesium 0.1 mg/mL to 100 mg/mL in DMT infusion or maintenance line”, the “effect on flow rate” value is “improve flow rate”.

With heparin, the “effect on flow rate” value (heparin 0.1-100 IU per mL) was “improve flow rate”.
